From PubChem BioAssay AID1347076 (National Center for Advancing Translational Sciences (NCATS), 2019)
Out of some 400,000 compounds screened, about 13,000 (3.2%) were called active. The inconclusive results got no clear call from the source; some entries with a clear call stand among them for comparison. The call rests on the fitted dose curve; in most records, active means well fitted cell-killing curve with a large enough effect; inconclusive means small, poorly fitted or top-dose-only effect, or effect the other way; inactive means flat fitted curve, though single readings scatter. Potencies beside an inconclusive call are fits to weak or partial responses and may not hold up.

assay: qHTS assay for MDR1-selective chemotherapeutics: Primary screen using the drug-selected MDR subline cells KB-V1; conditions: KB-V1 MDR cells viability, CellTiter-Glo, 72 h; activity change, negative = cytotoxicity: at 46.1 µM (top of the series); further: nearly all actives have a fitted effect of over 60% in size
Outline: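 Potencies derive from concentration-effect curves fitted to normalized luminescence (CellTiter-Glo) of KB-V1 cells treated for 72 h at 37 degrees C in phenol-red-free DMEM containing 10% FBS.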
On the % scale 0 is the no-effect control and ±100 the full control effect; potency means the concentration at half of the fitted maximal effect.

**Q.** Which Potency does the source give for `O=[N+]([O-])c1cc(/C=N/OCc2c(Cl)cccc2Cl)ccc1N1CCOCC1` here?
**A.** active: 13 µM

**Q.** Which Potency does the source give for `Cc1cccc2sc(NS(=O)(=O)c3ccccc3)nc12` here?
**A.** inactive

**Q.** Which Potency does the source give for `CN(C(=O)COC(=O)CNC(=O)C1CCCCC1)c1ccccc1` here?
**A.** inconclusive: 18.4 µM [rising, single point]

**Q.** Which Potency does the source give for `COc1ccc(/C=C2\C(=O)NCC(=O)N2Cc2ccccc2)cc1` here?
**A.** inconclusive: 20.6 µM [cytotoxic, single point]

**Q.** Which Potency does the source give for `CC(=O)Nc1ccc(NC(=O)CCn2c(=S)oc3ccccc32)cc1` here?
**A.** inconclusive: 18.4 µM [rising, single point]

**Q.** Which Potency does the source give for `c1ccc(Cc2nnc(N3CCCCC3)c3ccccc23)cc1` here?
**A.** inconclusive: 29.1 µM [cytotoxic, single point]

**Q.** For `Cc1c(CNC2CCCCC2)c(C(=O)O)c(C)n1Cc1ccc(F)cc1`, which Potency is on record?
**A.** inconclusive: 13 µM [rising, partial curve]

**Q.** Which Potency does the source give for `CC(Oc1ccccc1)C(=O)N[C@@H]1C(=O)N2C(C(=O)OCC3CCCCC3)C(C)(C)S[C@H]12` (stereo partly drawn) here?
**A.** inconclusive: 29.1 µM [cytotoxic, single point]

**Q.** For `O=C(c1ccc(N2CCN(C(=O)c3ccc(F)cc3F)CC2)cc1)c1cccc(F)c1`, which Potency is on record?
**A.** inconclusive: 13 µM [cytotoxic, single point]

**Q.** With `CCN(C(=O)c1cc2c(=O)n3cccc(C)c3nc2s1)c1ccc(C)c(C)c1` as the compound, how does the Potency read?
**A.** inconclusive: 10.3 µM [cytotoxic, partial curve, poor fit]

**Q.** With `CCc1ccc(C(=O)CN2C(=O)NC3(CCc4ccccc43)C2=O)cc1` (stereo not drawn) as the compound, how does the activity change, negative = cytotoxicity read?
**A.** inconclusive: -14.7%

**Q.** With `CCOc1ccc(NC(=O)COC(=O)CC2CC3CCC2C3)cc1` (stereo not drawn) as the compound, how does the Potency read?
**A.** inactive

**Q.** Which Potency does the source give for `Cc1ccc(NC(=O)Cn2nnc(-c3ccccc3NC(=O)c3cccs3)n2)cc1` here?
**A.** active: 1.3 µM

**Q.** For `CCc1ccccc1N(C)S(=O)(=O)c1ccc(-c2cc(C)no2)s1`, which Potency is on record?
**A.** inconclusive: 0.461 µM [cytotoxic, full curve, poor fit]

**Q.** For `CCS(=O)(=O)N1CCC(C(=O)NCc2ccc(F)cc2Cl)CC1`, which Potency is on record?
**A.** inconclusive: 25.9 µM [cytotoxic, single point]

**Q.** For `Fc1ccc(-c2cc(C(F)(F)F)nc(NCC3CCCO3)n2)cc1` (stereo not drawn), which Potency is on record?
**A.** inconclusive: 29.1 µM [cytotoxic, single point]

**Q.** Which Potency does the source give for `CNc1c(Br)cc(C(O)C2=CCc3ccccc32)cc1Br` (stereo not drawn) here?
**A.** inactive

**Q.** Which Potency does the source give for `O=C(Nc1cccc(F)c1)c1ccc(S(=O)(=O)N2CCCCC2)cc1` here?
**A.** inconclusive: 18.4 µM [cytotoxic, single point]

**Q.** With `CCOC(=O)c1sc(NC(=O)c2ccco2)c(C#N)c1C` as the compound, how does the Potency read?
**A.** inconclusive: 16.4 µM [cytotoxic, partial curve, poor fit]

**Q.** Which Potency does the source give for `Cc1ccc(/C=C/C(=O)C2C(=O)c3ccccc3C2=O)cc1` here?
**A.** inactive

**Q.** For `O=c1oc2ccccc2cc1-c1csc(Cc2nc(-c3ccc(Br)cc3)cs2)n1`, which Potency is on record?
**A.** inconclusive: 2.59 µM [cytotoxic, full curve, poor fit]

**Q.** Which Potency does the source give for `Cc1cccc(C)c1NS(=O)(=O)c1ccc(NS(=O)(=O)c2ccc3c(c2)OCCO3)cc1` here?
**A.** inactive

**Q.** Which Potency does the source give for `CCCc1[nH]n(-c2ccc([N+](=O)[O-])cc2)c(=O)c1C=NCCc1ccc(OC)c(OC)c1` here?
**A.** inconclusive: 7.31 µM [rising, single point]

**Q.** With `C=Cc1ccc(COc2ccc3oc(-c4ccccc4)c(C(=O)OCC)c3c2)cc1` as the compound, how does the Potency read?
**A.** inactive

**Q.** Which activity change, negative = cytotoxicity does the source give for `CCOC(=O)c1ccc(NC(=O)C2(S(=O)(=O)c3ccc(Cl)cc3)CC2)cc1` here?
**A.** inconclusive: -3.66%

**Q.** For `C=C1CCN([C@@H](CC(C)C)C(=O)NCCC(C)C)S(=O)(=O)c2ccccc21`, which Potency is on record?
**A.** inactive

**Q.** Which Potency does the source give for `COc1ccc(C(=O)/C=C2\C(=O)Nc3ccc(Br)cc32)cc1` here?
**A.** inconclusive: 20.6 µM [cytotoxic, single point]

**Q.** Which Potency does the source give for `Cc1cccc(N2CCN(C(=O)CCS(=O)(=O)c3ccc4c(c3)oc(=O)n4C)CC2)c1C` here?
**A.** inactive

**Q.** With `C=CCn1c(SCC(=O)c2cccs2)nc2sc(CC)cc2c1=O` as the compound, how does the Potency read?
**A.** inconclusive: 12.6 µM [cytotoxic, partial curve, poor fit]

**Q.** With `CCc1nc2ccc(C(=O)Nc3ccc(OC)c(OC)c3)cn2c1N(C)Cc1ccc(N(C)C)cc1` as the compound, how does the Potency read?
**A.** inactive

**Q.** For `O=C1CCCC(=O)C1C(c1ccc(Cl)cc1)C1C(=O)CCCC1=O`, which Potency is on record?
**A.** inconclusive: 11.6 µM [cytotoxic, partial curve, poor fit]

**Q.** Which Potency does the source give for `C/C=C\C=C\C(=O)N1CC2(CC(c3cccc(NC(=O)CC)c3)=NO2)C[C@H]1C(N)=O` (stereo partly drawn) here?
**A.** inconclusive: 9.2 µM [rising, partial curve, poor fit]

**Q.** Which Potency does the source give for `CC(=O)OC1OCCOC1NC(=S)Nc1cccc(C(F)(F)F)c1` (stereo not drawn) here?
**A.** inconclusive: 25.9 µM [rising, single point]

**Q.** With `CCOc1ccc(-n2c(SCC(=O)NC(C)CC)nc3n[nH]c(C)c3c2=N)cc1` (stereo not drawn) as the compound, how does the Potency read?
**A.** inactive

**Q.** With `CCOc1ccc(N(C(C)C(=O)N2CCCCCC2)S(C)(=O)=O)cc1` (stereo not drawn) as the compound, how does the Potency read?
**A.** inconclusive: 16.4 µM [cytotoxic, single point]

**Q.** With `Cc1oc2c(O)c(O)ccc2c(=O)c1-c1cnn(-c2ccccc2)c1` as the compound, how does the Potency read?
**A.** active: 3.66 µM

**Q.** With `O=C(CN1C(=O)C2(SCC(=O)N2c2ccccc2)c2ccccc21)NCc1ccccc1` (stereo not drawn) as the compound, how does the Potency read?
**A.** inconclusive: 16.4 µM [cytotoxic, single point]

**Q.** With `CCOC(=O)C1=C(C)NC(C)=C(C(=O)OCC)C1C(=O)OCC(=O)N1c2ccccc2CC1C` (stereo not drawn) as the compound, how does the Potency read?
**A.** inactive

**Q.** With `O=C(CCc1nc(-c2ccccc2F)no1)NC1CCCCCC1` as the compound, how does the Potency read?
**A.** active: 16.4 µM

**Q.** For `O=C(CCCOc1ccc(Cl)cc1Cl)Nc1cc(S(=O)(=O)N2CCOCC2)ccc1N1CCOCC1`, which Potency is on record?
**A.** active: 6.51 µM

**Q.** Which Potency does the source give for `O=C(NC(Cc1ccccc1)C(=O)N1CCN(c2ccc(F)cc2)CC1)c1ccccc1` (stereo not drawn) here?
**A.** inconclusive: 2.91 µM [cytotoxic, full curve]

**Q.** With `Cc1ccccc1-n1c(SCC(=O)N/N=C/c2c(C)nn(-c3ccccc3)c2C)nc2ccccc2c1=O` as the compound, how does the Potency read?
**A.** active: 5.8 µM

**Q.** With `Cc1ccc(/C=N/NC(=O)c2cccs2)cc1[N+](=O)[O-]` as the compound, how does the Potency read?
**A.** active: 14.6 µM

**Q.** With `O=S1(=O)CC(N2CCC(Cc3ccccc3)CC2)CN1C1CCCCC1` (stereo not drawn) as the compound, how does the Potency read?
**A.** inconclusive: 29.1 µM [cytotoxic, single point]

**Q.** With `CCOC(=O)C1CCCN(C(=O)c2cccc(S(=O)(=O)N3CCCC3)c2)C1` (stereo not drawn) as the compound, how does the Potency read?
**A.** inactive

**Q.** For `Cc1nn2c(NCCN3CCOCC3)c3c(nc2c1-c1ccccc1)CCCC3`, which Potency is on record?
**A.** inconclusive: 32.6 µM [cytotoxic, single point]

**Q.** Which Potency does the source give for `COc1ccc(S(=O)(=O)N2CCC(C)CC2)cc1OC` here?
**A.** inactive

**Q.** Which Potency does the source give for `O=C1NNC(c2ccccc2)=N/C1=C\c1ccco1` here?
**A.** inactive

**Q.** With `N#C/C(=C\c1cccc(F)c1)c1nc(-c2cc3ccccc3oc2=O)cs1` as the compound, how does the Potency read?
**A.** inconclusive: 16.4 µM [rising, single point]

**Q.** With `CCCCC[C@@H](C)N1C[C@@H](COCc2ccccc2)Oc2cc(N3CC[C@@H](O)C3)ccc2S1(=O)=O` as the compound, how does the Potency read?
**A.** inactive

**Q.** With `COC(=O)c1[nH]c2c(c1C)C(=O)CC(c1cc(OC)c(OC)c(OC)c1)C2` (stereo not drawn) as the compound, how does the Potency read?
**A.** inconclusive: 29.1 µM [cytotoxic, single point]

**Q.** With `O=C(NC1(C(F)(F)F)NC(=O)N(c2ccc(F)cc2)C1=O)c1ccncc1` (stereo not drawn) as the compound, how does the Potency read?
**A.** inactive

**Q.** Which Potency does the source give for `Cc1ccc2c(c1)NC(=O)C(CC(=O)NCCCN1CCN(c3cc(C)ccc3C)CC1)O2` (stereo not drawn) here?
**A.** inconclusive: 9.2 µM [cytotoxic, partial curve]

**Q.** For `C[C@@H]1CN([C@@H](C)CO)C(=O)Cc2cc(NC(=O)C3CCCCC3)ccc2O[C@H]1CN(C)S(=O)(=O)c1ccccc1`, which Potency is on record?
**A.** inconclusive: 29.1 µM [rising, single point]

**Q.** Which Potency does the source give for `Cc1ccc(Nc2cc(C)nc3ccccc23)c(C)c1` here?
**A.** inconclusive: 20.6 µM [cytotoxic, single point]

**Q.** Which Potency does the source give for `C[C@]12CC[C@@H]3c4ccc(O)cc4C(=O)C[C@H]3[C@@H]1CC[C@@H]2O` here?
**A.** inconclusive: 20.6 µM [cytotoxic, single point]

**Q.** Which Potency does the source give for `O=[N+]([O-])c1cccc(S(=O)(=O)N2CCN(c3ccccn3)CC2)c1` here?
**A.** inconclusive: 32.6 µM [cytotoxic, partial curve, poor fit]

**Q.** For `COc1cc(NC(=O)c2cncc(-c3ccc(C#N)cc3)c2)cc(C(=O)Nc2cccc(C(F)(F)F)c2)c1`, which Potency is on record?
**A.** inconclusive: 0.366 µM [rising, full curve]

**Q.** Which Potency does the source give for `CCC1CN(CC(=O)NCc2cccc(Br)c2)c2ccccc2S1` (stereo not drawn) here?
**A.** inconclusive: 14.6 µM [cytotoxic, single point]

**Q.** With `Fc1cccc(Cl)c1C1SCc2nc3ccccc3n21` (stereo not drawn) as the compound, how does the Potency read?
**A.** active: 23.1 µM

**Q.** With `CCN(/N=C/c1ccc(N(C)C)cc1)c1nc2ccccc2[nH]1` as the compound, how does the Potency read?
**A.** inconclusive: 20.6 µM [cytotoxic, partial curve, poor fit]

**Q.** For `Nc1nc(COC(=O)C2CC(=O)N(CCc3ccccc3)C2)nc(Nc2ccccc2)n1` (stereo not drawn), which Potency is on record?
**A.** inactive

**Q.** For `COc1ccc(NC(=O)COc2ccccc2Cc2ccccc2)cc1S(=O)(=O)N1CCOCC1`, which Potency is on record?
**A.** inconclusive: 5.17 µM [cytotoxic, partial curve]

**Q.** For `COC(=O)Cc1ccc(NC(=S)N2CCCC(C)C2)cc1` (stereo not drawn), which Potency is on record?
**A.** inconclusive: 23.1 µM [rising, single point]

**Q.** With `COC(=O)Cc1c(C)nc2nc(NCc3ccc(Br)cc3)[nH]n2c1=O` as the compound, how does the Potency read?
**A.** inconclusive: 23.1 µM [rising, single point]

**Q.** Which Potency does the source give for `O=C(Nc1ccc(Br)cc1F)c1nc[nH]c1C(=O)N1CCc2ccccc2C1` here?
**A.** inconclusive: 29.1 µM [cytotoxic, single point]

**Q.** For `Cc1cc(C)c2c(/C=C/c3ccc(N(C)C)cc3)ccnc2c1`, which Potency is on record?
**A.** inconclusive: 29.1 µM [cytotoxic, single point]

**Q.** Which Potency does the source give for `CCc1ccc(N2CC(C)Cn3c2nc2c3c(=O)n(CC(=O)O)c(=O)n2C)cc1` (stereo not drawn) here?
**A.** inconclusive: 32.6 µM [rising, single point]
